Measured values taken from the supplement of paper PMC12819154, “High-throughput peptide-centric local stability assay extends protein–ligand identification to membrane proteins, tissues and bacteria” (Nature Structural & Molecular Biology, 2025).
The other results are listed elsewhere or left out. Small differences around the control level are noise.

Amino acid sequences for entries named in this document (tags omitted). A change or cut given only in a name is not applied to a line headed by its entry.
UniProt Q08024, whole entry: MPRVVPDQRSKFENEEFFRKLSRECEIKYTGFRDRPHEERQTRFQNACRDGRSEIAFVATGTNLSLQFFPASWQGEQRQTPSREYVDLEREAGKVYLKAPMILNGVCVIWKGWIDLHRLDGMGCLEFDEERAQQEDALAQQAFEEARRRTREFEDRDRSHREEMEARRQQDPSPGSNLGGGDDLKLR
UniProt Q06890, whole entry: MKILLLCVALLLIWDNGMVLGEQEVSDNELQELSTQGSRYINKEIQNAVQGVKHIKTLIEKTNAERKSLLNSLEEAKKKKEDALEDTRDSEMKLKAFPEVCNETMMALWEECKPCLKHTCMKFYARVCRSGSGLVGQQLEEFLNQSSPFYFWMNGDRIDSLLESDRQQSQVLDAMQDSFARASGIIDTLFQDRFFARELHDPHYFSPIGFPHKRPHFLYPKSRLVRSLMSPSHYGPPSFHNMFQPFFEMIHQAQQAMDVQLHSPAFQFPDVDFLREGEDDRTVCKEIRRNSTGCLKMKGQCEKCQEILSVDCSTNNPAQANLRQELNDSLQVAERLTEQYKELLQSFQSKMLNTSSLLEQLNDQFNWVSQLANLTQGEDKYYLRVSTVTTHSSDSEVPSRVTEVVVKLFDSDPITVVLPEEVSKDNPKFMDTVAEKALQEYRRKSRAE
UniProt Q149F1: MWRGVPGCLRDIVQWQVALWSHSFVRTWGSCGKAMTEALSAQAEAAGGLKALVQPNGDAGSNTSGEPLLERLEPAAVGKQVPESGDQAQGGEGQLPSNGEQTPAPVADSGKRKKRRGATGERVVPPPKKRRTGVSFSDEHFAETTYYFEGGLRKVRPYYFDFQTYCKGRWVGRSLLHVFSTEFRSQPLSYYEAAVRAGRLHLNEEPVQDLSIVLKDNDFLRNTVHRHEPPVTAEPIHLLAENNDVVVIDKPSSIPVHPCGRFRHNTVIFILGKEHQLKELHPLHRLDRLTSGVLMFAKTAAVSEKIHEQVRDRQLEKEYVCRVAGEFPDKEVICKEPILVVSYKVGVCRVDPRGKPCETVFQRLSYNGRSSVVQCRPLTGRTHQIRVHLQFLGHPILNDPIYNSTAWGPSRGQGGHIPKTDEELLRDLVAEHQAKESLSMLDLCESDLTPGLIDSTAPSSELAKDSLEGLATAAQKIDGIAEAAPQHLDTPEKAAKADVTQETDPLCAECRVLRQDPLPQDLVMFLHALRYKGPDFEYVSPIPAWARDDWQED
UniProt Q3U1Z5: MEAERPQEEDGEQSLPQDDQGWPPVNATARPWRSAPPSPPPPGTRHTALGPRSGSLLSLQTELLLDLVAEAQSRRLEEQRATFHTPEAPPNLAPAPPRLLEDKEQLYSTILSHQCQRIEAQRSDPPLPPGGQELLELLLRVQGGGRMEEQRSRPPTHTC

Compound: CN[C@@H]1C[C@H]2O[C@@](C)([C@@H]1OC)n1c3ccccc3c3c4c(c5c6ccccc6n2c5c31)C(=O)NC4 [staurosporine]
Assay: log2 fold change of tryptic peptide abundance, ligand vs vehicle (limited proteolysis) (log2 ratio); higher = more trypsin-susceptible (destabilized)
Settings: ligand concentration: 20 uM; sample: mouse liver crude lysate; replicate design: treated separately

Q: Which log2 fold change does the source give for “UniProt Q08024 (peptide sequence: GWIDLHR, peptide start residue: 112)” here?
A: 0.262

Q: With “UniProt Q06890 (peptide sequence: VSTVTTHSSDSEVPSR, peptide start residue: 385)” as the target, how does the log2 fold change read?
A: 0.168

Q: Which log2 fold change does the source give for “UniProt Q149F1 (peptide sequence: DLVAEHQAK, peptide start residue: 427)” here?
A: 0.113

Q: Which log2 fold change does the source give for “UniProt Q3U1Z5 (peptide sequence: ATFHTPEAPPNLAPAPPR, peptide start residue: 81)” here?
A: 0.104
